Results are given in words; binding and its absence hold for the method and conditions named. In cells and extracts the contact can be indirect. Some binding calls cover weakened binding; strength is not graded here. Tags and fused reporters may be left off the sequences shown.

By UniProt entry, the sequences of proteins in these tests, tags left out.
UniProt P53618: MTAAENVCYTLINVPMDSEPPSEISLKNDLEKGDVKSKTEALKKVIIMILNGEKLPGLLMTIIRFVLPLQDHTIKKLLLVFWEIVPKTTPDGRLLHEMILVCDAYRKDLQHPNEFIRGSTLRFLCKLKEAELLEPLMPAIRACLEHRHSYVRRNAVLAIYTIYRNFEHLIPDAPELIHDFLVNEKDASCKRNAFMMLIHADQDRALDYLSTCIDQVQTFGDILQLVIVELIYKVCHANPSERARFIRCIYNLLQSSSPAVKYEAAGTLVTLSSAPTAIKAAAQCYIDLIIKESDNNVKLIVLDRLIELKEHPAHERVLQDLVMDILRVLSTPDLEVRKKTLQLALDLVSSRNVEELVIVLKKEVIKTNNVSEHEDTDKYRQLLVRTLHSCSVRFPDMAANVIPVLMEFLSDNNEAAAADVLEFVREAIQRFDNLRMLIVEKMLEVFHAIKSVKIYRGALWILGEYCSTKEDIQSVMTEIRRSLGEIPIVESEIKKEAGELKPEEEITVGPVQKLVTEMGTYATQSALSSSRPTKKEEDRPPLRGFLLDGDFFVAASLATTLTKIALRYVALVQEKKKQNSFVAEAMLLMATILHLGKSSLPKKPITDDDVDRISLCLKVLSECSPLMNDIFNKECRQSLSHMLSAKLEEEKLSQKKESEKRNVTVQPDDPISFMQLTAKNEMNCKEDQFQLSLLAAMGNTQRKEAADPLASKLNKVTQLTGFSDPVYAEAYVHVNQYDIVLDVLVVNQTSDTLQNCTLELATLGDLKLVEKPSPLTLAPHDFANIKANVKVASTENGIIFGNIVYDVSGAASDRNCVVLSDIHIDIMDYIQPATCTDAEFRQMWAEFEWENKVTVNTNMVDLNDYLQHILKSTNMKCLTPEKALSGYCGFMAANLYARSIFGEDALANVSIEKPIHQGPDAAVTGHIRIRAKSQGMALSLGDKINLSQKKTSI

For this experiment, the target named is T1, HA-TMEM63B-QL (mouse) (UniProt Q3TWI9).
T1 sequence: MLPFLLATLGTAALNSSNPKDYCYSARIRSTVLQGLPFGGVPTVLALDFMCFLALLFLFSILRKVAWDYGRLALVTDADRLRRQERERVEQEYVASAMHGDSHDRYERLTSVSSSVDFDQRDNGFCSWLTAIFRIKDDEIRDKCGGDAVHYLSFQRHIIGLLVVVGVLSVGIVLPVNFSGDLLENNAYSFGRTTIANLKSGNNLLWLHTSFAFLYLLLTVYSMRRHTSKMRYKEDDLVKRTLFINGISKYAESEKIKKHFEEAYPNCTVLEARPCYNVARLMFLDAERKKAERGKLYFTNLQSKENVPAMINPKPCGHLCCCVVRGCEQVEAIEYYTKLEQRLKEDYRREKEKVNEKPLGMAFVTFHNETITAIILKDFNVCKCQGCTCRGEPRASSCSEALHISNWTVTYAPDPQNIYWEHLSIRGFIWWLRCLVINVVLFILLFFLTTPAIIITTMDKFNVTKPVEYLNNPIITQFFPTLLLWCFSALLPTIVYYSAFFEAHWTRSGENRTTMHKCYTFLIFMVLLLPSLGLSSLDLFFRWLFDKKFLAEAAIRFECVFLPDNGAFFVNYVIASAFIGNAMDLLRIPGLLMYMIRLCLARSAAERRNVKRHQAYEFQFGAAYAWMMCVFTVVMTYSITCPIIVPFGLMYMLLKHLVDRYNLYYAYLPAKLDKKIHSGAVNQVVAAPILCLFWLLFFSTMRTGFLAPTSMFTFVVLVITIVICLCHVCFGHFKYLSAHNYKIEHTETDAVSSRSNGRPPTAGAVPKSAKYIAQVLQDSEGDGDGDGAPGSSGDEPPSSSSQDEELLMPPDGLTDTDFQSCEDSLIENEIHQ
Put plainly: co-IP; HEK293T lysate (RIPA buffer) of cells transfected with HA-TMEM63B; anti-HA antibody at 4 °C overnight, Protein G agarose beads, eluted with 0.1 M glycine pH 2.5; blot for endogenous β-COP.

Consider “β-COP subunit of COPI complex (from UniProt P53618 1-953)”, for which the binding result is “binds”.

The record behind these values is publication PMC9830214.
